Results from article PMC4727897.
These are yes or no findings as the source states them, for the method shown. For some of these results: Binding seen in cells or lysates may run through a third protein. Some results given as binding are weak or reduced against the parent protein; the word gives no strength. For some of these results: Tags and fused reporters may be left off the sequences shown.

Protein sequences, listed by entry. Tags and fused reporters are not part of them. Lines headed by an entry give the natural chain unless they say otherwise; changes in a name come on top.
UniProt P07355: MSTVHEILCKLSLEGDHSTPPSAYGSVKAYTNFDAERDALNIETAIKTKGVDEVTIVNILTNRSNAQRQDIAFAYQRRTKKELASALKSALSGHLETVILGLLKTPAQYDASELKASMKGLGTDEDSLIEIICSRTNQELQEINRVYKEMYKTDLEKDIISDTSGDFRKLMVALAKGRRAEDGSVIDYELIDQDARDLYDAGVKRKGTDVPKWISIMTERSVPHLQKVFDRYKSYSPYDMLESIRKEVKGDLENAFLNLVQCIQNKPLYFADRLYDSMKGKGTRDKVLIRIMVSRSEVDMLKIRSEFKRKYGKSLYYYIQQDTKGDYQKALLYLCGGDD

Tests used:
[1] = target: T1, p37 (major membrane protein of M. hyorhinis) (Mycoplasma hyorhinis) (UniProt P15363); test: co-IP; competition in the same co-IP: 20 μM synthetic A2PP added to lysates of M. hyorhinis infected BGC823 or AGS cells precipitated with anti-ANXA2; only the binder purified
T1 sequence: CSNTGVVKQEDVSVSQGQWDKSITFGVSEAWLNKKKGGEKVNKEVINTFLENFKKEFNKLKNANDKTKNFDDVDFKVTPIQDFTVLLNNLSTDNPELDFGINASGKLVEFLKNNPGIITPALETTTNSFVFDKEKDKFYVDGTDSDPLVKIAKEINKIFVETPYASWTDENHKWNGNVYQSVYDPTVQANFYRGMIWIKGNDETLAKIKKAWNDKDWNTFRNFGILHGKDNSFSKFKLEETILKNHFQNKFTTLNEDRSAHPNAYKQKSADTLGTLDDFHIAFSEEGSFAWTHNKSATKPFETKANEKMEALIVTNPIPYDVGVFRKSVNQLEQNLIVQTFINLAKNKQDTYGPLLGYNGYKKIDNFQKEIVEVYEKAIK

[2] = target: T2, GST-p37 fusion protein (p37, major membrane protein of M. hyorhinis) (Mycoplasma hyorhinis) (UniProt P15363); test: ELISA; solid-phase binding assay: GST-p37 or GST coated on 96-well plates (carbonate buffer pH 9.6, 4°C overnight), biotin-A2PP at indicated concentrations added at RT for 2 hr, streptavidin-HRP, OD490; both purified
T2 sequence: T1 sequence

[3] = target: biotin-conjugated A2PP (N-terminal polypeptide of Annexin A2, 1st to 30th aa) (UniProt P07355); test: pull-down; 100 ng GST-p37 or GST with 20 μM biotin-A2PP and streptavidin beads, 50 mM Tris-HCl pH 8.0, 150 mM NaCl, 0.5% NP-40, 0.5 mM DTT, 4°C overnight; Western blotting; both purified
[4] = target: Annexin A2 (ANXA2) (human (endogenous in BGC823 and AGS)) (UniProt P07355); test: co-IP; lysates (500 μg) of M. hyorhinis infected BGC823 or AGS cells, 1 μg anti-ANXA2 plus protein G sepharose, 4°C overnight, with 20 μM A2PP or ConP; pre-immune IgG as control; Western blotting

For “A2PP (N-terminal polypeptide of Annexin A2, 1st to 30th aa) (from UniProt P07355 1-30)”, the binding [1] was “binds”.

For “biotin-conjugated A2PP (N-terminal polypeptide of Annexin A2, 1st to 30th aa) (from UniProt P07355 1-30)”, the binding [2] was “binds”.

B1: GST-p37 fusion protein (p37, major membrane protein of M. hyorhinis) (protein, UniProt P15363 24-403)
chain: T1 sequence
B1 was tested, and the binding [3] was “binds”.

B2: p37 (major membrane protein of M. hyorhinis) (protein, UniProt P15363 24-403)
chain: T1 sequence
With B2 the binding [4] was “binds”.
